In ChEMBL document CHEMBL4825757, “Optimization of 4,6-Disubstituted Pyrido[3,2-d]pyrimidines as Dual MNK/PIM Inhibitors to Inhibit Leukemia Cell Growth” (J Med Chem, 2021):

Experiment: Metabolic stability in human liver microsomes assessed as half life preincubated for 10 mins followed by NADPH addition and further incubated upto 60 mins by LC-MS/MS analysis
Type: ADME, Microsome
Conditions: time <=70 min

Which half-life does the source give for `Cc1ncc2n1-c1ccc(Cl)cc1C(c1ccccc1F)=NC2` [MIDAZOLAM] here?
The half-life was 7.95 min.
